Laboratory results reported in paper PMC3794157.
These are yes or no findings as the source states them, for the method shown. Some results given as binding are weak or reduced against the parent protein; the word gives no strength.

Chains of the proteins cited; added tags and fusions are not shown. Lines headed by an entry give the natural chain unless they say otherwise; changes in a name come on top. A line that says so, or that is headed by a name, gives the form on record, which may keep a tag or linker. Residues count along the entry.
human fibrillin-1 cbEGF41-43 fragment (residues D2567-V2687), biotinylated, C-terminal BirA tag (P35555, residues 2567-2687): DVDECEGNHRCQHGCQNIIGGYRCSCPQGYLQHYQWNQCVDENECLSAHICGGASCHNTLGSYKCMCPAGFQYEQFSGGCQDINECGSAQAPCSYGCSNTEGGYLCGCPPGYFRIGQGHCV
FUN-EGF3 with N98 substituted with alanine (P35555, form named): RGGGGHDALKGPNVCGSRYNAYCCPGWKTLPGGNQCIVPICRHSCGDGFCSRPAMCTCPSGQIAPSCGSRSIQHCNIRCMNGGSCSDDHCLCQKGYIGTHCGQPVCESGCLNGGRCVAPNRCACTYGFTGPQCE
FUN-EGF3 with D131 substituted with alanine (P35555, form named): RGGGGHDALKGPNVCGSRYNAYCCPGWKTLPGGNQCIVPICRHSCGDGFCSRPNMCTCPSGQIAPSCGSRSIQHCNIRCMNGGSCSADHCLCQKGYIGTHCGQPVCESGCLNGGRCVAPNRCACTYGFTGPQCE
R159A FUN-EGF3 (P35555, form named): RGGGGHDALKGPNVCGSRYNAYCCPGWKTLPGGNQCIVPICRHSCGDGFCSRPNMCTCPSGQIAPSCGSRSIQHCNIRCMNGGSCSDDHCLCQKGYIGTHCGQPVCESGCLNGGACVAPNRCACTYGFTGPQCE

What follows are substances tested against human fibrillin-1 cbEGF41-43 fragment (residues D2567-V2687), biotinylated, C-terminal BirA tag (human) (UniProt P35555) (assay: pull-down; data not shown: pull-down with immobilised cbEGF41-43 of FUN-EGF3 alanine mutants that the legend of Figure 8D does not name; both purified).
For “FUN-EGF3 with N98 substituted with alanine (from UniProt P35555 45-178) (domain or fragment)”, the binding was “binds”. For “FUN-EGF3 with D131 substituted with alanine (from UniProt P35555 45-178) (domain or fragment)”, the binding was “binds”. In the case of “R159A FUN-EGF3 (from UniProt P35555 45-178) (domain or fragment)”, the binding was “binds”.
